Experimental data reported in PubChem BioAssay AID1671190 (National Center for Advancing Translational Sciences (NCATS), 2021).
Hit rate of the full screen: of about 580,000 compounds, about 6,100 (1.1%) were called active. The shares of active, inactive and inconclusive entries below differ from those in the screen. Calls follow the shape of the dose curve; as a rule, active = well fitted inhibition curve with a large enough effect; inconclusive = small, poorly fitted or top-dose-only effect, or another doubt; inactive = no such curve, though single readings can be large or run the other way. A potency beside an inconclusive call is a rough fit, not a confirmed value.
% is scaled to controls: 0 for no effect and ±100 for the full control effect; potency is read from the fitted curve at half-maximal effect.

Sequences of proteins named here, by UniProt entry; tags and fusion partners are left off.
UniProt P18054, whole entry, looked up: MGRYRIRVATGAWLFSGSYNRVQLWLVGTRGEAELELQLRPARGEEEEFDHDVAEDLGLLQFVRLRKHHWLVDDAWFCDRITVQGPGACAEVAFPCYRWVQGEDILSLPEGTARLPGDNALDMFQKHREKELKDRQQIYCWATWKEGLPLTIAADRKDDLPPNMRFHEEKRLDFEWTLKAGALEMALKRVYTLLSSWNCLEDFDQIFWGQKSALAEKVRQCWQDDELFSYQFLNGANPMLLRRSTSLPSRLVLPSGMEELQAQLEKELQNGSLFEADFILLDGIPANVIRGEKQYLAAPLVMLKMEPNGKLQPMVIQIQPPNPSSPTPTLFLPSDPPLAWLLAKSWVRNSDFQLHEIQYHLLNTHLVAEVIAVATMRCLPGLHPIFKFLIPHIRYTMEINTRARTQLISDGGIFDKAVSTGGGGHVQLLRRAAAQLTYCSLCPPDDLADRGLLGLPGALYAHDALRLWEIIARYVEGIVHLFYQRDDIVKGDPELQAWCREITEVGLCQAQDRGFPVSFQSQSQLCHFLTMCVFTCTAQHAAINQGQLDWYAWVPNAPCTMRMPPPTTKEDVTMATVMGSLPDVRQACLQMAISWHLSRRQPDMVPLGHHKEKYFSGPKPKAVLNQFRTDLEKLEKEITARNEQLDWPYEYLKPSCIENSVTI

These compounds were tested against Polyunsaturated fatty acid lipoxygenase ALOX12 (Homo sapiens) (UniProt P18054) (assay: Primary qHTS assay for inhibitors of human arachidonate 12S-lipoxygenase (ALOX12): Round 2). Settings: purified 12hLO, xylenol orange hydroperoxide absorbance; activity change, negative = inhibition: at 108 µM (top of the series) unless noted.
Outline: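 Hydroperoxide product was detected by ferrous iron/xylenol orange as the 573 to 405 nm absorbance ratio. Arachidonic acid at 40 uM (final) was turned over for 30 min at room temperature by 150 nM human 12hLO, pH 7.0 Hepes buffer, after 15 min compound preincubation.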
In the case of `Cc1c(Cl)cccc1NC(=S)NCC(C)C`, the Potency is reported as inconclusive: 89.1 µM [inhibitor, partial curve, poor fit]. `N#Cc1nc(C2CC2)oc1N1CCN(Cc2ccc(Cl)cc2)CC1` was tested, and the Potency was inconclusive: 0.316 µM [inhibitor, full curve, poor fit]. With `Cc1c(C(=O)NCc2ccc(F)cc2)oc2ccc(S(=O)(=O)N3CCCCC3)cc12` the activity change, negative = inhibition was inconclusive: -30.1% [inhibitor]. With `Cn1c(=O)n(C)c2cc(SC3CCCCC3)c(NS(=O)(=O)c3cccc(Cl)c3)cc21` the Potency was “inactive”. For `CC(C)c1nc2c(c(-c3ccc(Cl)cc3)n1)CCN(Cc1ccc(N(C)C)cc1)CC2`, the Potency was inconclusive: 89.1 µM [inhibitor, partial curve, poor fit]. `Cc1cccc(NC(=O)c2ccc(NCCc3ccccc3)c([N+](=O)[O-])c2)c1` was tested, and the Potency was “inactive”. In the case of `COC(CNC(=O)c1cc(-c2ccccc2)nc2ccccc12)OC`, the Potency is reported as “inactive”. With `Cc1ccc2c(c1)c1c(c(=O)n(-c3cccc(Cl)c3)c(=O)n1CC(=O)NCC1CCCO1)n2C` (configuration not stated) the Potency was inconclusive: 126 µM [inhibitor, partial curve, poor fit]. For `COc1ccc(S(=O)(=O)N2CCN(c3ccc(C)c(Cl)c3)CC2)c2ccccc12`, the Potency was “inactive”. `O=C1CCCCC(C(=O)NCC2CCCCC2)N1` (configuration not stated) was tested, and the Potency was inconclusive: 39.8 µM [inhibitor, partial curve, poor fit]. For `Cc1cc(C)c(S(=O)(=O)c2ccccc2)c(OC(=O)c2c(F)cccc2F)n1`, the Potency was “inactive”. With `Cc1ccc(C(=O)C(C)Oc2ccccc2Cl)cc1` (configuration not stated) the Potency was inconclusive: 15.8 µM [inhibitor, partial curve, poor fit]. In the case of `Cc1ccc(S(=O)(=O)N2CCN(C(=O)c3cc4c(s3)CCC4)CC2)cc1`, the Potency is reported as inconclusive: 44.7 µM [inhibitor, partial curve, poor fit]. For `Cc1cc(Cl)nc(Cl)c1CCCl`, the Potency was inconclusive: 5.01 µM [inhibitor, full curve, poor fit]. In the case of `CCNc1cc(N2CCC(CCC(=O)NCc3c(C)nn(C)c3C)CC2)ncn1`, the Potency is reported as “inactive”. With `CCn1c2ccccc2n2c(=O)c(=O)n(CC(=O)Nc3ccc(C(C)C)cc3)nc12` the Potency was inconclusive: 3.16 µM [inhibitor, single point]. In the case of `CC1(C)Cc2[nH]c3ccccc3c2C(C)(C)N1`, the Potency is reported as inconclusive: 44.7 µM [inhibitor, partial curve, poor fit]. For `Cc1ccccc1OCC(=O)NCc1ccc(CS(N)(=O)=O)cc1`, the Potency was “inactive”. `CC1(C)CC(=O)C2=C(C1)OC(=O)CC2c1ccc2ccccc2c1` (configuration not stated) was tested, and the Potency was inconclusive: 44.7 µM [inhibitor, partial curve, poor fit]. With `c1ccc2c(c1)oc1c(Nc3ccc(CN4CCOCC4)cc3)ncnc12` the Potency was inconclusive: 35.5 µM [inhibitor, partial curve, poor fit]. With `CN(C)C(=O)c1cc(-c2ccccc2F)cc2c1OCCN2Cc1cccnc1` the Potency was inconclusive: 112 µM [inhibitor, partial curve, poor fit]. In the case of `COc1ccc(C(=O)N/N=C(/C)c2ccc3c(c2)Nc2ccccc2S3)cc1OC`, the Potency is reported as inconclusive: 50.1 µM [inhibitor, partial curve, poor fit]. In the case of `Cc1ccc2nc(N(CCCN(C)C)C(=O)c3ccc(S(=O)(=O)N4CCCCCC4)cc3)sc2c1`, the Potency is reported as inconclusive: 39.8 µM [inhibitor, partial curve, poor fit]. With `CC(=O)Oc1ccc(N2C(=O)C3C(C2=O)C(C(=O)c2ccc(Cl)cc2)N2CCCC32)cc1` (configuration not stated) the Potency was inconclusive: 25.1 µM [inhibitor, partial curve, poor fit]. `c1cncc(OCc2nc(C3CCNCC3)no2)c1` was tested, and the Potency was inconclusive: 4.47 µM [inhibitor, full curve, poor fit]. In the case of `COc1ccc(CNC(=O)CN2C(=O)C3CCCN3c3ncc(Cl)cc32)cc1` (configuration not stated), the Potency is reported as inconclusive: 79.4 µM [inhibitor, single point]. With `COc1ccc(C(=O)NC2CCN(C(=O)N3CC4CC(C3)[C@H]3CCCC(=O)N3C4)CC2)cc1` (some centres not stated) the Potency was “inactive”. `CN1CCN(c2ccc(S(=O)(=O)N3CCCCC3)cc2NC(=O)Cc2ccc(Cl)cc2)CC1` was tested, and the Potency was inconclusive: 44.7 µM [inhibitor, partial curve, poor fit]. `O=C(Nc1ccc2c3c(cccc13)CC2)c1ccc(Cl)cc1` was tested, and the Potency was “inactive”. For `Clc1c(OCCCn2ccnc2)ccc2ccccc12`, the Potency was inconclusive: 79.4 µM [inhibitor, partial curve, poor fit]. With `CC1(C)C2CC=C(/C=N/NC(=S)Nc3ccc(SC(F)F)cc3)C1C2` (configuration not stated) the Potency was active: 31.6 µM. With `O=C(Nc1ccccc1)c1ccccc1NC(=O)[C@H]1CCCC[C@H]1C(=O)O` the Potency was “inactive”. In the case of `COc1ccc(C2Oc3ccccc3C3=C2C(c2cccs2)n2ncnc2N3)cc1` (configuration not stated), the Potency is reported as inconclusive: 63.1 µM [inhibitor, partial curve, poor fit]. With `CCC(NS(=O)(=O)c1cn(C)nc1C)c1ccccc1` (configuration not stated) the Potency was “inactive”. For `CCn1c(C)nnc1SCC(=O)Nc1ccc(N2CCOCC2)cc1`, the Potency was inconclusive: 44.7 µM [inhibitor, partial curve, poor fit]. With `COc1cccc(-c2cnc([C@@H]3COCCN3Cc3ccc(S(C)(=O)=O)cc3)[nH]2)c1` the Potency was “inactive”. `CCc1cccc2c(C(CC(=O)NC(C)C(C)C)c3ccc(OC)c(OC)c3)c[nH]c12` (configuration not stated) was tested, and the Potency was “inactive”. With `O=C(COC(=O)c1cc(=O)[nH]c(=O)[nH]1)Nc1cccc(S(=O)(=O)N2CCCCC2)c1` the Potency was inconclusive: 3.55 µM [inhibitor, full curve, poor fit]. `Cc1nc(N)sc1-c1csc(Nc2cccc(O)c2)n1` was tested, and the Potency was inconclusive: 28.2 µM [inhibitor, partial curve, poor fit]. `CCOc1ccc2oc(C(=O)N3CCN(c4ccccc4OCC)CC3)c(C)c2c1` was tested, and the Potency was inconclusive: 89.1 µM [inhibitor, single point]. In the case of `O=C(O)c1ccc(CSc2nc3ccc(NC(=O)c4ccccc4C(=O)O)cc3s2)cc1`, the Potency is reported as “inactive”. `COc1ccc(NC(=O)/C=C/c2ccc(C(C)(C)C)cc2)cc1Cl` was tested, and the Potency was inconclusive: 11.2 µM [inhibitor, full curve, poor fit].
